From PubChem BioAssay record AID1918963 (NCATS, 2023).

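This is a 48-hour luminescent ATP readout of how many cells of the JIM3 myeloma line survive drug treatment. Compounds were titrated from roughly 0.00003 to 92 µM. The number is the fitted AC50 for the cytotoxic effect; a lower value means a more potent compound. Calls follow the NCATS curve-class scoring: actives score 40–100, while inconclusive compounds score 1–39 and have a curve class other than 4.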

Values are in µM. Every entry below has the call inconclusive. Only part of the assay is shown, chiefly results filed as inconclusive. A potency from a partial, single-point or poor curve is only a rough figure. Some entries filed as inconclusive have a full curve. Activity scores are not listed here.

{"structure": "CS(=O)(=O)c1ccc(C(=O)Nc2ccc(Cl)c(-c3ccccn3)c2)c(Cl)c1", "Potency (µM)": "14.82", "curve as filed": "cytotoxic, partial curve"}
{"structure": "O=C(c1ccc(OCCN2CCCCC2)cc1)c1c(-c2ccc(O)cc2)sc2cc(O)ccc12", "Potency (µM)": "23.48", "curve as filed": "cytotoxic, single point"}
{"structure": "CN(C)CCCN=c1c2ccccc2n(C)c2[nH]c(=O)n(C)c(=O)c12", "Potency (µM)": "11.77", "curve as filed": "cytotoxic, partial curve"}
{"structure": "CCCCOc1ccc(CC(=O)NO)cc1", "Potency (µM)": "7.427", "curve as filed": "cytotoxic, partial curve, poor fit"}
{"structure": "CCNC(=O)Nc1ccc(-c2nc3c(c(N4CCOC[C@H]4C)n2)CCN(C2COC2)C3)cc1", "Potency (µM)": "1.321", "curve as filed": "cytotoxic, full curve"}
{"structure": "O=C(O)C1CCCN(CCC=C(c2ccccc2)c2ccccc2)C1", "stereo": "stereo not drawn", "Potency (µM)": "0.0372", "curve as filed": "cytotoxic, full curve, poor fit"}
{"structure": "COc1ccc(C=Cc2cc(OC)c(OC)c(OC)c2)cc1NC(=O)[C@H](N)CO", "Potency (µM)": "0.0019", "curve as filed": "cytotoxic, full curve"}
{"structure": "CC[C@@H](C)[C@H](NC(=O)[C@H](CC1CCCCC1)NC(=O)c1ccno1)C(=O)N1CCC2(CCc3ccccc32)CC1", "Potency (µM)": "9.35", "curve as filed": "cytotoxic, full curve, poor fit"}